Measured values published in PMC9609317, “Evaluation of Metabolism of a Defined Pesticide Mixture through Multiple In Vitro Liver Models” (Toxics, 2022).

Assays:
[1] = tested on: induced pluripotent stem cell-derived hepatocytes (iHep) suspension; assay: In vitro hepatocyte clearance in iHep suspension, targeted LC-MS/MS and GC-MS/MS; type: in vitro ADME, human; conditions: rank of in vitro clearance, highest (1) to lowest (12), 1µM mixture
Description: (§1) Suspension assays using iHep were performed as previously detailed with slight modification. In brief, pre-differentiated iHep were suspended in iHep maintenance media and adjusted to the cell concentration of 1 × 10^6 cells/mL. A portion of the cell working stock was heated at 95 °C for five minutes to serve as negative control. Five hundred microliters of the chemical stock (20 chemicals, 2 or 10 µM each) were spiked in 500 µL of the cell working stock or heat-inactivated cell control to a final cell density of 5 × 10^5 cells/mL. Fifty microliters were removed subsequently at 0, 60, 120, and 240 min to individual 1.5 mL Eppendorf tubes for further sample extraction detailed below. Each experimental condition was replicated three times.
Sample extraction procedures and chromatographic conditions were previously reported in [34]. In brief, each sample (50 µL) was spiked with 10 µL of 10 µM internal standards, mixed with 100 µL of chilled acetonitrile, and then centrifuged at 10,000× g for 5 min. The supernatant was dried under vacuum using SpeedVac (Savant SPD1010, Beckman Coulter, Brea, CA, USA) and reconstituted with 50 µL of aqueous mobile phase prior to analyses. LC-MS/MS analysis was performed using 1290 Infinity II LC and 6470 triple quadrupole mass spectrometer (both instruments from Agilent Technologies, Santa Clara, CA, USA). Sample extract (10 µL) was chromatographed on a ZORBAX SSHD Eclipse Plus C18 column (3.0 × 50 mm, 1.8 µm, Cat No.: 959757-302; Agilent Technologies) with a guard column (2.1 × 5 mm, 1.8 µm, Cat No.: 821725-901; Agilent Technologies), and ionized using electrospray ionization. Analytical response was acquired in both positive and negative modes.
For positive ion compounds, mobile phases consisted of 0.1% formic acid in water (A) and 0.1% formic acid in methanol (B) using the following gradient: 2% B held for 1 min, B increased to 80% by 3 min, B increased to 95% by 4 min, B decreased to 2% by 5 min and held for 3 min for a total run time of 8 min per sample at a flow rate of 0.4 mL/min. For negative ion compounds, the LC gradient and flow rate were the same as in positive mode, except that mobile phase A was water and mobile phase B was acetonitrile.
Fifty microliters of media sample were spiked with 10 µL of 10 µM internal standards, mixed with 50 µL of methanol and 200 µL of pentane: diethyl ether (1:1 v/v), vortexed briefly, and then centrifuged at 600× g for 5 min. Organic layer supernatants were transferred to a 2 mL amber vial and concentrated under nitrogen prior to GC analysis. Detection of analytes was achieved using a 7890B GC and 7010B triple quadrupole mass spectrometer (both from Agilent Technologies). Samples were injected (1 µL) in splitless mode. Analytes were separated with a VF-5ms GC column (60 m × 250 µm × 0.25 µm, Cat No.: CP8960; Agilent Technologies) and ionized using electron ionization. The column head pressure was set at 21.5 psi (148,237 Pa) with a constant flow rate at 1.2 mL/min using helium gas. Initial column temperature was held at 70 °C for 5 min, increased to 150 °C at 50 °C/min, ramped to 280 °C at 4 °C/min, and then held […]. The total run time was 42.1 min. The injector temperature was set at 250 °C. The ion source and auxiliary transfer line temperatures were 300 °C. Electron multiplier voltage was set at 1884 V. Ultra-high purity nitrogen gas was used as the collision gas for all MS/MS experiments, and collision gas pressure was set at 16.8 psi (115,832 Pa).
In vitro hepatocyte clearance (Clin vitro) of each chemical was estimated by substrate depletion approach assuming first-order kinetics for compound elimination: Clin vitro = kV/N, where k = first-order elimination rate constant, V = incubation volume, and N = number of cells in the incubation. […]

[2] = tested on: induced pluripotent stem cell-derived hepatocytes (iHep) suspension; assay: iHep suspension, nontargeted IMS-MS analysis (clearance, metabolite formation, mass balance); type: in vitro ADME, human; conditions: rank of in vitro clearance, highest (1) to lowest (12), 1µM mixture
Description: as §1
All nontargeted analyses were performed using a 6560 IMS-QTOF MS (Agilent Technologies) as detailed previously. All individual standards for pesticide parent compounds (n = 20) and known metabolites (n = 10) were directly injected in triplicate into the electrospray ionization (ESI) source (positive and negative mode) and atmospheric pressure photo-ionization (APPI, negative mode only) to obtain collision cross section (CCS) and mass-to-charge ratio (m/z) values. Blanks were injected between standards to reduce the likelihood of carryover. For sample analyses, ESI was chosen as the optimal source to detect analytes in either positive or negative mode. During IMS-MS analyses, ions were passed through the inlet glass capillary, focused by a high-pressure ion funnel, and accumulated in an ion funnel trap. Next, ions were pulsed into the 78.24 cm-long IMS drift tube filled with nitrogen gas at a pressure of approximately 3.95 torr (527 Pa). Ions exiting the drift tube were refocused by a rear ion funnel prior to quadrupole time-of-flight (QTOF) MS detection. Detailed instrumental settings in ESI mode can be found in Table S1. Prior to instrumental analysis, the IMS-MS was tuned and a mass calibration was performed using Agilent Tune Mix from the manufacturer (Cat No.: G2421-60001, Agilent Technologies).
In vitro hepatocyte clearance (Clin vitro) of each chemical was estimated by substrate depletion approach assuming first-order kinetics for compound elimination: Clin vitro = kV/N, where k = first-order elimination rate constant, V = incubation volume, and N = number of cells in the incubation. Clin vitro was further scaled up to the intrinsic hepatocyte clearance (Clint) according to the equation [38]:Clint = Clin vitro × HPGL × Vl(1) where HPGL = hepatocytes per gram liver (137 × 10^6 cells/g) and Vl = volume of the whole liver (1820 g).

Structure (SMILES) | Rank, Targeted Analyses (GC- or LC-MS/MS) [1] | Rank, Nontargeted Analyses (IMS-MS) [2]
O=[N+]([O-])c1ccc(O)c([N+](=O)[O-])c1 [2,4-Dinitrophenol] | 5 | 2
ClC1=C(Cl)C2(Cl)C3C4C=CC(C4)C3C1(Cl)C2(Cl)Cl (stereo not drawn) [Aldrin] | 9 | 7
COP(=S)(OC)SCn1nnc2ccccc2c1=O [Azinphos-methyl] | 6 | 1
CCOP(=S)(OCC)Oc1nc(Cl)c(Cl)cc1Cl [Chlorpyrifos] | 2 | 3
Clc1ccc(C(c2ccc(Cl)cc2)C(Cl)Cl)cc1 [DDD-p,p', DDD-p,p’] | 10 | 7
CCOP(=S)(OCC)Oc1cc(C)nc(C(C)C)n1 [Diazinon] | 1 | 6
ClC1=C(Cl)[C@]2(Cl)[C@@H]3[C@@H]4C[C@@H]([C@H]5O[C@@H]45)[C@@H]3[C@@]1(Cl)C2(Cl)Cl [Dieldrin] | 12 | 7
CCOP(=S)(OCC)SCCSCC [Disulfoton] | 4 | 4
O=S1OC[C@@H]2[C@H](CO1)[C@]1(Cl)C(Cl)=C(Cl)[C@@]2(Cl)C1(Cl)Cl (stereo partly drawn) [Endosulfan I] | 7 | 7
CCOP(=S)(OCC)SCSP(=S)(OCC)OCC [Ethion] | 3 | 5
ClC1=C(Cl)[C@]2(Cl)[C@@H]3[C@@H](Cl)[C@H]4O[C@H]4[C@@H]3[C@@]1(Cl)C2(Cl)Cl [Heptachlor Epox. B, Heptachlor epoxide B] | 8 | 7
CCCN(CCC)c1c([N+](=O)[O-])cc(C(F)(F)F)cc1[N+](=O)[O-] [Trifluralin] | 10 | 7
